Our source for the binding values is PMC10373549.

Assay [1] deals with T1, SMC5-SMC6 localization factor 2 (SLF2), endogenous (human (endogenous in HepG2-NTCP)) (UniProt Q8IX21).
T1 sequence: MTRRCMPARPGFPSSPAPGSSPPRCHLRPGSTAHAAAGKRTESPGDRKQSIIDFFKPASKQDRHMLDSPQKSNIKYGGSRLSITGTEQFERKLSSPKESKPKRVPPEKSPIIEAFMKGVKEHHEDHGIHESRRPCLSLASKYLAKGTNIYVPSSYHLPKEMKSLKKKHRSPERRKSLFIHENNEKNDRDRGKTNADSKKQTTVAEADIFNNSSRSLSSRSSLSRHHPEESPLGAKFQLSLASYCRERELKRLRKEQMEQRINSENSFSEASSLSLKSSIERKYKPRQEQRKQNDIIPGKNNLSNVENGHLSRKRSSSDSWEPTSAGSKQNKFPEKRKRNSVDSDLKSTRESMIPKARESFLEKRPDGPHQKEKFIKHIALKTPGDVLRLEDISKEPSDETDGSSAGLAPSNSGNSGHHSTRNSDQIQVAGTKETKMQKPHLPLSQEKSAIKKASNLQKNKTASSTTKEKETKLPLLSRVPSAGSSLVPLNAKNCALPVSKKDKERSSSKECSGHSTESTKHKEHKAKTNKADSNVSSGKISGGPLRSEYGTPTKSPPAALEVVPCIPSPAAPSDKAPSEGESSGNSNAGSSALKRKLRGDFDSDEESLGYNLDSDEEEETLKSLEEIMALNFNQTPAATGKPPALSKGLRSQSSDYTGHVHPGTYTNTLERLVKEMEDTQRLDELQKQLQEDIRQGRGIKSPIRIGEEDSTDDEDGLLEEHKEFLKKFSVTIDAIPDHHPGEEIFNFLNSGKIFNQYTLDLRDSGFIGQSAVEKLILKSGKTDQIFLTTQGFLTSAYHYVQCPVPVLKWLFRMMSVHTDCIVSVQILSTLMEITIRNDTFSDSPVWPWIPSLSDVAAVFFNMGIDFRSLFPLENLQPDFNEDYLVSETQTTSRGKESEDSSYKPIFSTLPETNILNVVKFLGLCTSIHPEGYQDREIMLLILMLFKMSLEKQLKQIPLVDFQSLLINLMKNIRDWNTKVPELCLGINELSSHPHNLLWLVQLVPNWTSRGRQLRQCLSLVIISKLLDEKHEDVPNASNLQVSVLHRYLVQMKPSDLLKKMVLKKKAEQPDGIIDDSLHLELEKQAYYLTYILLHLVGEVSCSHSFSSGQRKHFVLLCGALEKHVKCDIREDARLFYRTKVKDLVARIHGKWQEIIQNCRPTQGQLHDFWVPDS
The assay can be described thus: co-IP; nucleus lysate of HepG2-NTCP cells cultured in PMM for 48 h (1% CA630, TBS, benzonase); SLF2 antibody on Dynabeads Protein A, 3 h at 4°C; washes with TBS and 250 mM NaCl; Western blot for SMC6.

In assay [2] the target is T2, full-length SLF2 (SLF2-HA) (human) (UniProt Q8IX21).
T2 sequence: T1 sequence
The experiment in a line: co-IP; nucleus lysates of SLF2 knockout HepG2-NTCP cells transduced with lentivirus expressing SLF2-HA or truncation variants; anti-HA IP; Western blot for SMC6 and SLF2-HA. A general note: Immunoblotting shows a protein as a band on a membrane.

No constants are given. Whether binding was seen depends on the method and setting. Binding seen in cells or lysates may run through a third protein. Some entries that bind do so weakly or less than the wild type. For some assays here: Sequences can lack the tags named with a protein.

B1: SMC6, endogenous (protein, UniProt Q96SB8 1-1091)
chain: MAKRKEENFSSPKNAKRPRQEELEDFDKDGDEDECKGTTLTAAEVGIIESIHLKNFMCHSMLGPFKFGSNVNFVVGNNGSGKSAVLTALIVGLGGRAVATNRGSSLKGFVKDGQNSADISITLRNRGDDAFKASVYGNSILIQQHISIDGSRSYKLKSATGSVVSTRKEELIAILDHFNIQVDNPVSVLTQEMSKQFLQSKNEGDKYKFFMKATQLEQMKEDYSYIMETKERTKEQIHQGEERLTELKRQCVEKEERFQSIAGLSTMKTNLESLKHEMAWAVVNEIEKQLNAIRDNIKIGEDRAARLDRKMEEQQVRLNEAEQKYKDIQDKLEKISEETNARAPECMALKADVVAKKRAYNEAEVLYNRSLNEYKALKKDDEQLCKRIEELKKSTDQSLEPERLERQKKISWLKERVKAFQNQENSVNQEIEQFQQAIEKDKEEHGKIKREELDVKHALSYNQRQLKELKDSKTDRLKRFGPNVPALLEAIDDAYRQGHFTYKPVGPLGACIHLRDPELALAIESCLKGLLQAYCCHNHADERVLQALMKRFYLPGTSRPPIIVSEFRNEIYDVRHRAAYHPDFPTVLTALEIDNAVVANSLIDMRGIETVLLIKNNSVARAVMQSQKPPKNCREAFTADGDQVFAGRYYSSENTRPKFLSRDVDSEISDLENEVENKTAQILNLQQHLSALEKDIKHNEELLKRCQLHYKELKMKIRKNISEIRELENIEEHQSVDIATLEDEAQENKSKMKMVEEHMEQQKENMEHLKSLKIEAENKYDAIKFKINQLSELADPLKDELNLADSEVDNQKRGKRHYEEKQKEHLDTLNKKKRELDMKEKELEEKMSQARQICPERIEVEKSASILDKEINRLRQKIQAEHASHGDREEIMRQYQEARETYLDLDSKVRTLKKFIKLLGEIMEHRFKTYQQFRRCLTLRCKLYFDNLLSQRAYCGKMNFDHKNETLSISVQPGEGNKAAFNDMRALSGGERSFSTVCFILSLWSIAESPFRCLDEFDVYMDMVNRRIAMDLILKMADSQRFRQFILLTPQSMSSLPSSKLIRILRMSDPERGQTTLPFRPVTQEEDDDQR
Consider B1, for which the binding result in assay [1] and in assay [2] was “binds” each time.
